Structures can show the parent of a compound that is named as a salt. ± gives the standard deviation of the averaged measurements. Some of the results follow. The data scatter; read single values as rough.
Tested on: Salmonella enterica serovar Typhimurium ST313 D23580
Assay: normalized bacterial growth (OD600 20 h minus 0 h, interquartile-mean normalized) (fraction of plate interquartile mean); higher = more bacterial growth (less inhibition)
Settings: LPM (pH 5.8, low phosphate, low Mg2+), concentration: 10 µM, temperature: 37 °C

| SMILES | normalized bacterial growth |
| --- | --- |
| COc1cc2c(cc1OC)C1(O)C(=O)c3ccc(O)c(C(=O)O)c3OC1CO2 (configuration not stated) | 0.988 |
| NC(CCCP(=O)(O)O)C(=O)O (configuration not stated) [()-2-Amino-5-phosphonopentanoic acid] | 1.12 |
| C#C[C@]1(O)CC[C@H]2[C@@H]3CCc4cc(O)ccc4[C@H]3CC[C@@]21C | 0.928 |
| CC(C)=CC1C(CO)C1(C)C (configuration not stated) | 1.04 |
| Cc1occc(=O)c1O | 0.9 |
| CCCCCCCC/C=C\CCCCCCCC(=O)NCCO [N-Oleoylethanolamine] | 0.3 |
| CNCC[C@@H](Oc1ccc(C(F)(F)F)cc1)c1ccccc1 [R-(-)-Fluoxetine hydrochloride] | 0.816 |
| COc1ccc(C(=O)O)c(O)c1OC | 1.11 |
| Cc1cc(C)cc(OCC2CNC(=O)O2)c1 (configuration not stated) | 0.84 |
| CC(=O)O[C@H]1C[C@@H]2CC[C@@H]3[C@H](CC[C@@]4(C)[C@H]3C[C@H]([N+]3(C)CCCCC3)[C@@H]4OC(C)=O)[C@@]2(C)C[C@@H]1N1CCCCC1 | 0.721 |
| C[C@]12C=CC(=O)C=C1CC[C@H]1[C@@H]3C[C@@H](O)[C@](O)(C(=O)CO)[C@@]3(C)C[C@H](O)[C@@]12F | 1.24 |
| C[C@]12C=CC(=O)C=C1CC[C@H]1[C@@H]3C[C@@H](O)[C@](O)(C(=O)CO)[C@@]3(C)C[C@H](O)[C@@]12F [Triamcinolone] | 0.914 |
| CC1(C)O[C@@H]2C[C@H]3[C@@H]4CCC5=CC(=O)CC[C@]5(C)[C@@]4(F)[C@@H](O)C[C@]3(C)[C@]2(C(=O)CCl)O1 [Halcinonide] | 1.12 |
| CC1(C)O[C@@H]2C[C@H]3[C@@H]4CCC5=CC(=O)CC[C@]5(C)[C@@]4(F)[C@@H](O)C[C@]3(C)[C@]2(C(=O)CCl)O1 | 0.987 |
| C[C@@H]1O[C@@H](OC[C@H]2O[C@@H](Oc3c(-c4ccc(OCCO)c(OCCO)c4)oc4cc(OCCO)cc(O)c4c3=O)[C@H](O)[C@@H](O)[C@@H]2O)[C@H](O)[C@H](O)[C@H]1O | 1.13 |
| OC(c1cc(C(F)(F)F)nc2c(C(F)(F)F)cccc12)C1CCCCN1 (configuration not stated) | 0.942 |
| CNCCCC12CCC(c3ccccc31)c1ccccc12 [Maprotiline hydrochloride] | 1.18 ± 0.48 |
| CC[C@H]1OC(=O)C[C@@H](O)[C@H](C)[C@@H](O[C@@H]2O[C@H](C)[C@@H](O)[C@H](N(C)C)[C@H]2O)[C@@H](CCN2C[C@H](C)C[C@H](C)C2)C[C@@H](C)C(=O)/C=C/C(C)=C/[C@@H]1CO[C@@H]1O[C@H](C)[C@@H](O)[C@@H](OC)[C@H]1OC | 0.865 |
| Cc1coc2c1C(=O)C(=O)c1c-2ccc2c1CCCC2(C)C | 1.12 |
| Cc1cc(Cn2cnc3c2C[C@@H](C(=O)O)N(C(=O)C(c2ccccc2)c2ccccc2)C3)ccc1N | 0.858 |
| CCCCCCC(=O)OC1CC(C)(C)NC(C)(C)C1 [TMPH hydrochloride] | 0.813 |

| SMILES | normalized bacterial growth |
| --- | --- |
| CCCCCC(=O)O[C@]1(C(C)=O)CC[C@H]2[C@@H]3CCC4=CC(=O)CC[C@]4(C)[C@H]3CC[C@@]21C | 0.693 |
| Oc1cc2c(cc1O)CN(C(=S)NCCc1ccc(Cl)cc1)CCC2 [Capsazepine] | 0.794 |
| O=C(O[C@@H]1Cc2c(O)cc(O)cc2O[C@@H]1c1ccc(O)c(O)c1)c1cc(O)c(O)c(O)c1 | 0.659 |
| Nc1nc(Cl)nc2c1ncn2[C@@H]1O[C@H](COP(=O)(O)OP(=O)(O)OP(=O)(O)O)[C@H](O)C1O (some centres not stated) [2-Chloroadenosine triphosphate tetrasodium] | 0.67 |
| NC[C@@H](O)c1ccc(O)c(O)c1 [L(-)-Norepinephrine bitartrate] | 1.08 |
| COc1c(C)c2c(c(O)c1C/C=C(\C)CCC(=O)O)C(=O)OC2 | 0.799 ± 0.095 |
| CC(=O)NC(CC(=O)O)C(=O)O (racemic) ["Aspartic acid, N-acetyl (R,S)"] | 1.08 |
| O=C(O)c1ccc(S(=O)(=O)N(Cl)Cl)cc1 | 1.15 |
| O=C(Oc1ccccc1C(=O)O)c1ccccc1O | 1.09 |
| NS(=O)(=O)c1cc(Cl)c(Cl)c(S(N)(=O)=O)c1 [Dichlorphenamide] | 1.25 |
| CCN1CCCC(OC(=O)C(c2ccccc2)c2ccccc2)C1 (configuration not stated) | 0.917 |
| Nc1ccc(C(=O)O)cc1 | 1 |
| CN(C)CCCSC(=N)N | 1.18 |
| NCCNCCNCCN | 1.01 |
| O=C(NCCN1CCOCC1)c1ccc(Cl)cc1 [Moclobemide] | 0.613 |
| CN1C(=O)OC(C)(C)C1=O [Trimethadione] | 1.33 |
| CC(=O)CCCCn1c(=O)c2c(ncn2C)n(C)c1=O [Pentoxifylline] | 1.11 |
| OCCN1CCN(CCCN2c3ccccc3C=Cc3ccccc32)CC1 [Opipramol dihydrochloride] | 0.911 |
| O=C(O)C=C1CCCc2ccccc2C1O (configuration not stated) | 1.04 |
| C[C@H]1O[C@@H](n2cc(F)c(=O)[nH]c2=O)[C@H](O)[C@@H]1O [5-fluoro-5'-deoxyuridine] | 0.455 |
| Clc1ccc(C(c2ccc(Cl)cc2)[n+]2ccn(CC(OCc3ccc(Cl)cc3Cl)c3ccc(Cl)cc3Cl)c2)cc1 (configuration not stated) [Calmidazolium chloride] | 0.0556 |

2 successive entries out of the list so far, for reference:

| SMILES | normalized bacterial growth |
| --- | --- |
| CCN1CCCC(OC(=O)C(c2ccccc2)c2ccccc2)C1 (configuration not stated) | 0.917 |
| Nc1ccc(C(=O)O)cc1 | 1 |

Source: the supplement of paper PMC10398353
